Measurements reported in article PMC11705955, “Lack of activity of HIV-1 integrase strand-transfer inhibitors on recombinase activating gene (RAG) activity at clinically relevant concentrations” (Microbiology Spectrum, 2024).
No constants are given. Whether binding was seen depends on the method and setting.

Protein sequences, listed by entry. Tags and fused reporters are not part of them. Residues count along the entry.
UniProt P09429, residues 1-163: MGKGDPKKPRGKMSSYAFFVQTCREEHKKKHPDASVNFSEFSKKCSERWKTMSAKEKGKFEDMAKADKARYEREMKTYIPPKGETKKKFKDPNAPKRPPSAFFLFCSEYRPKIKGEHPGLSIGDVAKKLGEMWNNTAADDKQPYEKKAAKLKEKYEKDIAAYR

Target: human HMGB1 (AA1-163) (human) (UniProt P09429)
Test: SEC-MALS; Superdex 200 Increase 5/150 GL, 25-mM HEPES (pH 7.0), 100-mM KCl, 2-mM DTT, 0.1-mM EDTA, 0.3 mL/min, room temperature; 1.37 µg/µL in 55 µL applied; both purified

binding: no binding (tested: 1.37 µg/µL)
Substance: human HMGB1 (AA1-163) (from UniProt P09429 1-163) (domain or fragment)
